Values of other authors as cited in article PMC12127550 (The Journal of Biological Chemistry, 2025).

System: OATP1B1
Conditions: no reference given; cited from earlier work

## CC(C)c1c(C(=O)Nc2ccccc2)c(-c2ccccc2)c(-c2ccc(F)cc2)n1CC[C@@H](O)C[C@@H](O)CC(=O)O [atorvastatin]
  inhibition of and transport by OATP1B1: non-inhibitory transport substrate for OATP1B1
